Results taken from publication PMC4051119, “Bacterial actin MreB forms antiparallel double filaments” (eLife, 2014).
These are yes or no findings as the source states them, for the method shown. In cells and extracts the contact can be indirect. Some results given as binding are weak or reduced against the parent protein; the word gives no strength.

Target: EcMreB-K77C/T119C/C113S/C278S/C324S (E. coli) (UniProt P0A9X4)
Assay: cross-linking; in vivo in E. coli FB17/pFB112/pFB124, cells at late log phase in PBSG with 5 mM EDTA, 100 µM bismaleimidoethane (BMOE) 10 min on ice, quenched with β-mercaptoethanol; Western blot with α-MreB antibodies

- binding: binds
B1: EcMreB-K77C/T119C/C113S/C278S/C324S (protein, UniProt P0A9X4 1-347)
chain: MLKKFRGMFSNDLSIDLGTANTLIYVKGQGIVLNEPSVVAIRQDRAGSPKSVAAVGHDAKQMLGRTPGNIAAIRPMCDGVIADFFVTEKMLQHFIKQVHSNSFMRPSPRVLVSVPVGACQVERRAIRESAQGAGAREVFLIEEPMAAAIGAGLPVSEATGSMVVDIGGGTTEVAVISLNGVVYSSSVRIGGDRFDEAIINYVRRNYGSLIGEATAERIKHEIGSAYPGDEVREIEVRGRNLAEGVPRGFTLNSNEILEALQEPLTGIVSAVMVALEQSPPELASDISERGMVLTGGGALLRNLDRLLMEETGIPVVVAEDPLTSVARGGGKALEMIDMHGGDLFSEE
